These results are taken from patent publication US20160235727A1, “NOVEL PYRROLIDINE DERIVED BETA 3 ADRENERGIC RECEPTOR AGONISTS” (Merck Sharp & Dohme Corp., priority 2013, published 2016).

Protein sequences, listed by entry. Tags and fused reporters are not part of them.
UniProt P13945, whole entry: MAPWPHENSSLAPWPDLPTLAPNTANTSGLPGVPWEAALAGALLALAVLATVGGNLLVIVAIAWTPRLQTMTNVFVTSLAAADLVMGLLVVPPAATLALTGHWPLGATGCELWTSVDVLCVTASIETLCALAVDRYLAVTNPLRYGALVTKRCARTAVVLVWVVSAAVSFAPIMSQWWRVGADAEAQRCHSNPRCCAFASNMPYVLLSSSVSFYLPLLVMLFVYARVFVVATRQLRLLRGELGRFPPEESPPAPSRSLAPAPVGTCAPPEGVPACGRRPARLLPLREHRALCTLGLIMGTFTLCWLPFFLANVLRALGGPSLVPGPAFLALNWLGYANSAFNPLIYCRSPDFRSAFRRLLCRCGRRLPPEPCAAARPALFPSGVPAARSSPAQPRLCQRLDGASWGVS

Structures were worked out from names or drawings and are uncertain.

For this assay, the target named is human β3-AR (Homo sapiens, UniProt P13945). As to the kind of experiment: cAMP functional agonist assay (LANCE TR-FRET) in CHO cells expressing cloned human β3-AR. To be noted: tested form: TFA. For orientation: TR-FRET usually uses a lanthanide donor and a delayed reading to cut background.

For orientation: EC50 means the concentration at which the effect is half-maximal. Take `Cc1cc(CN(C)Cc2ccc(C[C@@H]3CC[C@H]([C@H](O)c4ccc(Cl)cc4)N3)cc2)cnc1F`: where the note is “EC50 of comparative example divided by EC50 of corresponding 2-chloropyridine compound”, the “Fold drop in potency vs. 2-chloropyridine analog” value is on record as 5.7 fold. Further, the “Human β3-AR Agonist Activity (%)” value (percent maximum activation relative to isoproterenol) is given as 95%. For the same molecule, the EC50 (read-out: Human β3-AR Agonism EC50, CHO cells stably expressing cloned human β3-adrenoceptor, cAMP release) amounted to 3 nM.
